Data: PubChem BioAssay AID1487 (National Center for Advancing Translational Sciences (NCATS), 2009)
The list shows a part of the results. These are further read-outs of the screen, such as a control signal, another cell line or another target. No call is given for them. The list favours compounds with an active or inconclusive main result. Words in brackets tell the shape of the fitted curve; partial curves, single points and poor fits give uncertain potencies.

Test: qHTS Assay for Modulators of Lamin A Splicing
Conditions: HeLa LMNA splicing GFP/RFP minigene ratio, 48 h
Summary of the method: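 S3 HeLa stable clones carrying a lamin A-EGFP splicing minigene plus DsRed2 were seeded at 600 cells/well in Opti-MEM with 2% FBS, pin-dosed and incubated 48 h at 37°C. Acumen cytometry (488 nm) gave the GFP/RFP total-intensity ratio.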

[1] = measured here: GFP splicing reporter channel
[2] = measured here: RFP viability control channel

Row | SMILES | AC50 [1] | AC50 [2]
1 | CCOC(=O)c1c(NC(=O)C2CCCO2)sc2c1CCC2 (stereo not drawn) | 14.1 µM [rising, partial curve] | 35.5 µM [rising, single point]
2 | O=C(CSc1nnc(-c2c[nH]c3ccccc23)o1)N(Cc1ccccc1)c1ccc(F)cc1 | 14.1 µM [rising, single point] | 12.6 µM [rising, partial curve]
3 | Cc1ccc(N(C)S(=O)(=O)c2ccc(-c3coc(C)n3)cc2)cc1 | 35.5 µM [falling, single point] | –
4 | NC(=O)N/N=C/c1cc(Br)ccc1OCC(=O)NCc1ccccc1 | 11.2 µM [rising, single point] | 20 µM [rising, single point]
5 | CN(c1ccc(C(=O)NCCSC(C)(C)C)cc1)S(=O)(=O)c1ccccc1 | 10 µM [falling, partial curve, poor fit] | 0.1 µM [falling, partial curve, poor fit]
6 | CCOc1ccc(CCNC(=O)c2cc3sccc3n2CC)cc1OCC | 2.82 µM [rising, single point] | 4.47 µM [rising, full curve]
7 | CC(=O)NCCNC(=O)c1ccc(Sc2ccccc2)c([N+](=O)[O-])c1 | 0.00447 µM [falling, full curve, poor fit] | –
8 | O=C(COC(=O)c1cccnc1Nc1cccc(C(F)(F)F)c1)NCCN1C(=O)CSC1=O | 35.5 µM [rising, single point] | 35.5 µM [rising, single point]
9 | O=C(Cc1coc2ccc3ccccc3c12)Nc1nnc(C2CC2)s1 | 6.31 µM [rising, partial curve] | 3.16 µM [rising, full curve]
10 | COc1ccc(CCNC(=O)c2cn3ccc(C)cc3n2)cc1OC | – | 11.2 µM [falling, partial curve]
11 | CC(=O)O[C@@H]1C[C@H]2C(C)(C)C(=O)C=C[C@]2(C)[C@H]2CC[C@@]3(C)[C@H](c4ccoc4)OC(=O)[C@H]4O[C@]43[C@@]21C | – | 28.2 µM [rising, single point]
12 | O=C(CSCc1ccc(Cl)cc1)Nc1ccc(S(=O)(=O)N2CCOCC2)cc1 | – | 35.5 µM [rising, single point]
13 | Cc1cc(NC(=O)c2cnn3cccnc23)n(-c2ccccc2)n1 | – | 2.82 µM [rising, partial curve, poor fit]
14 | COc1ccc(OC)c(-c2csc(NC(=O)CSc3ccc([N+](=O)[O-])cc3)n2)c1 | 35.5 µM [rising, single point] | –
15 | CCc1nnc(NC(=O)CSc2nnc(-c3c[nH]c4ccccc34)n2CC)s1 | – | 14.1 µM [rising, single point]
16 | COc1ccc(NC(=O)c2c(NCc3ccc(OC)c(OC)c3OC)sc3c2CCC3)c(OC)c1 | – | 25.1 µM [falling, partial curve]
17 | CCN1C(=O)[C@H]2[C@H]3[C@H](O)[C@H](O)C/C(=N\OC[C@@H](C)[C@H](OCc4ccccc4)C(C)C)[C@@H]3CC[C@H]2C1=O | – | 31.6 µM [rising, single point]
18 | O=C(NCCCN1CCN(Cc2ccccc2)CC1)C1CCN(c2nnc(-n3cccc3)s2)CC1 | 4.47 µM [rising, partial curve] | 15.8 µM [rising, partial curve]
19 | O=[N+]([O-])c1cc([N+](=O)[O-])c2c(=Nc3ccccc3)n(-c3ccccc3)n(O)c2c1 | – | 12.6 µM [rising, single point]
20 | N#Cc1cnc(NN)nc1 | – | 2 µM [rising, partial curve]
21 | COc1ccc(C2C=C(c3ccc(F)cc3)NC(=S)N2)cc1OC (stereo not drawn) | – | 35.5 µM [rising, single point]
22 | Cc1cc(OC(C)C(=O)N2CCC(c3nc4ccccc4o3)CC2)ccc1Cl (stereo not drawn) | 0.00562 µM [falling, full curve, poor fit] | 22.4 µM [falling, partial curve, poor fit]
23 | Cc1ccc(-c2csc(NC(=O)COc3ccc(N(C)S(=O)(=O)c4ccc(C)cc4)cc3)n2)cc1 | 8.91 µM [rising, partial curve] | 8.91 µM [rising, partial curve]
24 | COc1ccc(S(=O)(=O)Cc2ccc(C(=O)N3CCN(c4cccc(C)c4C)CC3)o2)cc1 | 15.8 µM [falling, single point] | 31.6 µM [falling, single point]
25 | CCCNC(=O)C1CCN(C(=O)N2CC(C)Oc3ccccc32)CC1 (stereo not drawn) | 17.8 µM [rising, partial curve] | –
26 | COCCNC(=O)Nc1ccc2nc(-c3cccs3)c(-c3cccs3)nc2c1 | – | 25.1 µM [rising, single point]

Row | SMILES | AC50 [1] | AC50 [2]
27 | Cc1cc(Oc2ccc(Cl)cc2)nc(SCC(=O)c2ccccc2)n1 | – | 20 µM [rising, single point]
28 | Cc1onc(-c2c(Cl)cccc2Cl)c1C(=O)c1ccccc1 | 35.5 µM [falling, single point] | 0.355 µM [falling, full curve, poor fit]
29 | O=C(Nc1sc2c(c1C(=O)O)CCCC2)c1cccs1 | 10 µM [rising, partial curve] | 11.2 µM [rising, partial curve]
30 | CCOCCCNc1nc(=S)[nH]c2cc(OC)c(OC)cc12 | – | 31.6 µM [rising, single point]
31 | O=C1NC(=O)c2cc(Nc3ccccc3)c(Nc3ccccc3)cc21 | 0.00501 µM [falling, full curve, poor fit] | 12.6 µM [falling, partial curve, poor fit]
32 | CCOc1cc(C)nc(N2CCC(C(=O)Nc3ccccc3OCC)CC2)n1 | – | 14.1 µM [rising, single point]
33 | NS(=O)(=O)c1ccc(N=Nc2c(-c3ccccc3)[nH]n(-c3nc(-c4ccccc4)cs3)c2=O)cc1 | 5.01 µM [rising, partial curve] | 3.55 µM [rising, full curve]
34 | CCC(c1nnnn1Cc1ccc(OC)cc1)N1CCN(c2ccc(OC)cc2)CC1 (stereo not drawn) | 0.0316 µM [falling, full curve, poor fit] | –
35 | Cn1nc(C(F)(F)F)c(-c2ccccc2)c1NC(=O)CSCC(=O)O | 1.58 µM [rising, partial curve] | 3.55 µM [rising, single point]
36 | Cc1ccccc1NC(=O)CNc1ccccc1N1CCCCC1 | 12.6 µM [rising, single point] | –
37 | CN(Cc1ccccc1)C(=O)c1ccc([N+](=O)[O-])o1 | – | 17.8 µM [rising, single point]
38 | Cc1nn(C)c(C)c1NC(=O)c1ccc(Cl)cc1 | 28.2 µM [falling, single point] | 10 µM [falling, partial curve]
39 | O=C(CCCSc1nc2ccccc2[nH]1)NC(c1ccccc1)c1ccccc1 | – | 12.6 µM [rising, single point]
40 | COC(=O)c1ccc2c(=O)n(CCCCCC(=O)N3CCN(c4cc(C)ccc4C)CC3)c(=O)[nH]c2c1 | 35.5 µM [falling, single point] | 35.5 µM [falling, single point]
41 | COc1ccc(CN2CC(=O)N(c3ccc(C)cc3)C2=S)cc1OC | 31.6 µM [rising, single point] | 35.5 µM [rising, single point]
42 | CCn1nc(C)c(/C=C/C(=O)Nc2ccc(C)cc2C)c1C | 1.41 µM [rising, partial curve, poor fit] | 35.5 µM [rising, single point]
43 | Cc1nc(CN(C)Cc2nc(Cc3ccccc3Cl)no2)cs1 | – | 20 µM [falling, partial curve, poor fit]
44 | Cc1ccc(S(=O)(=O)N2CCc3nc(COc4ccccc4)c4c(c3C2)CO[C@@H](C)C4)cc1 | – | 1.26 µM [falling, single point]
45 | CC(Sc1nc(-c2ccccc2)cs1)C(=O)Nc1ccc(Cl)cn1 (stereo not drawn) | – | 20 µM [rising, single point]
46 | COc1ccccc1-c1cc(C(=O)N/N=C/c2sccc2C)c2ccccc2n1 | 0.794 µM [falling, single point] | 0.631 µM [falling, single point]
47 | OC(CNCC1CCCO1)Cn1c2ccc(Cl)cc2c2cc(Cl)ccc21 (stereo not drawn) | 17.8 µM [falling, partial curve] | 20 µM [falling, partial curve]
48 | Cc1ccc(NC(=O)CSc2nc3ccccc3c(=O)n2CCC(=O)NC2CCCCC2)cc1C | – | 35.5 µM [falling, partial curve, poor fit]
49 | c1ccc(CN2CCN(c3nc(NCc4ccco4)c4ccccc4n3)CC2)cc1 | 15.8 µM [rising, partial curve] | 17.8 µM [rising, partial curve]
50 | CCOc1ccccc1NC(=O)c1cc2cc3cc(C)ccc3nc2s1 | 14.1 µM [falling, partial curve] | 12.6 µM [falling, partial curve]
51 | CCCn1c2ccccc2c2cnn(CC(=O)N(CC)c3cc(C)ccc3C)c(=O)c21 | 35.5 µM [falling, single point] | 31.6 µM [falling, single point]
52 | CCN(c1ccccc1)S(=O)(=O)c1ccc(Cl)c(C(=O)NCCc2ccc(OC)cc2)c1 | 12.6 µM [rising, partial curve] | 22.4 µM [rising, single point]

One compound at a time (already shown). Values in the order: AC50 [1] | AC50 [2]
`Cc1ccc(-c2csc(NC(=O)COc3ccc(N(C)S(=O)(=O)c4ccc(C)cc4)cc3)n2)cc1` is entered as 8.91 µM [rising, partial curve] | 8.91 µM [rising, partial curve]
`COc1ccc(NC(=O)c2c(NCc3ccc(OC)c(OC)c3OC)sc3c2CCC3)c(OC)c1` is entered as – | 25.1 µM [falling, partial curve]
`CCCn1c2ccccc2c2cnn(CC(=O)N(CC)c3cc(C)ccc3C)c(=O)c21` is entered as 35.5 µM [falling, single point] | 31.6 µM [falling, single point]
`CC(=O)NCCNC(=O)c1ccc(Sc2ccccc2)c([N+](=O)[O-])c1` is entered as 0.00447 µM [falling, full curve, poor fit] | –
